# According to the supplement of paper PMC8728848:
# Some of the results follow.
# B1: EfCBM33A (Enterococcus faecalis), Q838S1 (protein)
# chain: MKKSLLTIVLAFSFVLGGAALAPTVSEAHGYVASPGSRAFFGSSAGGNLNTNVGRAQWEPQSIEAPKNTFITGKLASAGVSGFEPLDEQTATRWHKTNITTGPLDITWNLTAQHRTASWDYYITKNGWNPNQPLDIKNFDKIASIDGKQEVPNKVVKQTINIPTDRKGYHVIYAVWGIGDTVNAFYQAIDVNIQ
# Columns and labels:
# Assay in all cases: glycan array binding signal (z-score within array); higher = stronger binding
# Conditions in all cases: glycan notation: IUPAC condensed, linker removed
# [1] = biological target: Fuc(a1-2)[Gal(a1-3)]Gal(b1-4)[Fuc(a1-3)]GlcNAc(b1-3)GalNAc
# Method in brief: (§1)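 The Consortium for Functional Glycomics database supplied 3228 glycan arrays, of which those lacking an available protein sequence were dropped. The binding signal, a within-array Z-score, was averaged across arrays of the same protein sequence and across linkers. Negative scores can be read as non-binding.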
# [2] = biological target: Fuc(a1-2)[Gal(a1-4)]Gal(b1-4)GlcNAc
# Method in brief: as §1
# [3] = biological target: Fuc(a1-2)[GalNAc(a1-3)]Gal
# Method in brief: as §1
# [4] = biological target: Fuc(a1-2)[GalNAc(a1-3)]Gal(b1-3)GalNAc(a1-3)[Fuc(a1-2)]Gal(b1-4)GlcNAc
# Method in brief: as §1
# [5] = biological target: Fuc(a1-2)[GalNAc(a1-3)]Gal(b1-3)GalNAc(b1-3)Gal(a1-4)Gal(b1-4)Glc
# Method in brief: as §1
# [6] = biological target: Fuc(a1-2)[GalNAc(a1-3)]Gal(b1-3)GlcNAc
# Method in brief: as §1
# [7] = biological target: Fuc(a1-2)[GalNAc(a1-3)]Gal(b1-3)GlcNAc(b1-2)Man(a1-3)[Fuc(a1-2)[GalNAc(a1-3)]Gal(b1-3)GlcNAc(b1-2)Man(a1-6)]Man(b1-4)GlcNAc(b1-4)GlcNAc
# Method in brief: as §1
# [8] = biological target: Fuc(a1-2)[GalNAc(a1-3)]Gal(b1-3)GlcNAc(b1-2)Man(a1-3)[Fuc(a1-2)[GalNAc(a1-3)]Gal(b1-3)GlcNAc(b1-2)Man(a1-6)]Man(b1-4)GlcNAc(b1-4)[Fuc(a1-6)]GlcNAc
# Method in brief: as §1
# [9] = biological target: Fuc(a1-2)[GalNAc(a1-3)]Gal(b1-3)GlcNAc(b1-3)GalNAc
# Method in brief: as §1
# [10] = biological target: Fuc(a1-2)[GalNAc(a1-3)]Gal(b1-3)GlcNAc(b1-6)GalNAc
# Method in brief: as §1
# [11] = biological target: Fuc(a1-2)[GalNAc(a1-3)]Gal(b1-4)Glc
# Method in brief: as §1
# [12] = biological target: Fuc(a1-2)[GalNAc(a1-3)]Gal(b1-4)GlcNAc
# Method in brief: as §1
# [13] = biological target: Fuc(a1-2)[GalNAc(a1-3)]Gal(b1-4)GlcNAc(b1-2)Man
# Method in brief: as §1
# [14] = biological target: Fuc(a1-2)[GalNAc(a1-3)]Gal(b1-4)GlcNAc(b1-2)Man(a1-3)[Fuc(a1-2)[GalNAc(a1-3)]Gal(b1-4)GlcNAc(b1-2)Man(a1-6)]Man(b1-4)GlcNAc(b1-4)GlcNAc
# Method in brief: as §1
# [15] = biological target: Fuc(a1-2)[GalNAc(a1-3)]Gal(b1-4)GlcNAc(b1-2)Man(a1-3)[Fuc(a1-2)[GalNAc(a1-3)]Gal(b1-4)GlcNAc(b1-2)Man(a1-6)]Man(b1-4)GlcNAc(b1-4)[Fuc(a1-6)]GlcNAc
# Method in brief: as §1
# [16] = biological target: Fuc(a1-2)[GalNAc(a1-3)]Gal(b1-4)GlcNAc(b1-3)Gal(b1-4)GlcNAc
# Method in brief: as §1
# [17] = biological target: Fuc(a1-2)[GalNAc(a1-3)]Gal(b1-4)GlcNAc(b1-3)Gal(b1-4)GlcNAc(b1-3)Gal(b1-4)GlcNAc
# Method in brief: as §1
# [18] = biological target: Fuc(a1-2)[GalNAc(a1-3)]Gal(b1-4)GlcNAc(b1-3)GalNAc
# Method in brief: as §1
# [19] = biological target: Fuc(a1-2)[GalNAc(a1-3)]Gal(b1-4)GlcNAc(b1-3)[Fuc(a1-2)[GalNAc(a1-3)]Gal(b1-4)GlcNAc(b1-6)]GalNAc
# Method in brief: as §1
# [20] = biological target: Fuc(a1-2)[GalNAc(a1-3)]Gal(b1-4)GlcNAc(b1-6)GalNAc
# Method in brief: as §1
# [21] = biological target: Fuc(a1-2)[GalNAc(a1-3)]Gal(b1-4)[Fuc(a1-3)]GlcNAc
# Method in brief: as §1
# [22] = biological target: Fuc(a1-2)[GalNAc(a1-3)]Gal(b1-4)[Fuc(a1-3)]GlcNAc(b1-3)GalNAc
# Method in brief: as §1
# [23] = biological target: Fuc(a1-2)[GalNAc(a1-4)]Gal(b1-4)GlcNAc
# Method in brief: as §1
binder,measurement,setting,value
B1,glycan array binding signal (z-score),[1],0.1
same,glycan array binding signal (z-score),[2],0.016
same,glycan array binding signal (z-score),[3],0.534
same,glycan array binding signal (z-score),[4],-1.24
same,glycan array binding signal (z-score),[5],-0.121
same,glycan array binding signal (z-score),[6],-0.157
same,glycan array binding signal (z-score),[7],0.694
same,glycan array binding signal (z-score),[8],-0.255
same,glycan array binding signal (z-score),[9],0.359
same,glycan array binding signal (z-score),[10],-0.346
same,glycan array binding signal (z-score),[11],1.38
same,glycan array binding signal (z-score),[12],-0.111
same,glycan array binding signal (z-score),[13],-0.818
same,glycan array binding signal (z-score),[14],0.341
same,glycan array binding signal (z-score),[15],-0.321
same,glycan array binding signal (z-score),[16],0.048
same,glycan array binding signal (z-score),[17],-0.566
same,glycan array binding signal (z-score),[18],-0.27
same,glycan array binding signal (z-score),[19],0.336
same,glycan array binding signal (z-score),[20],-0.679
same,glycan array binding signal (z-score),[21],-1.09
same,glycan array binding signal (z-score),[22],0.257
same,glycan array binding signal (z-score),[23],0.039

# Reprinted from the listing (2 entries):
binder,measurement,setting,value
B1,glycan array binding signal (z-score),[13],-0.818
same,glycan array binding signal (z-score),[14],0.341
